Measured values reported in PubChem BioAssay AID504444 (National Center for Advancing Translational Sciences (NCATS), 2011).
Screen size: about 360,000 compounds; about 7,500 (2.1%) were called active. Inconclusive results, whose numbers are uncertain, are shown with a selection of clear calls. Calls follow the shape of the dose curve; as a rule, active = well fitted inhibition curve with a large enough effect; inconclusive = small, poorly fitted or top-dose-only effect, or effect the other way; inactive = flat fitted curve, though single readings scatter. Where the call is inconclusive, the potency comes from a doubtful curve fit.

Assay: Nrf2 qHTS screen for inhibitors; also: nearly all actives have a fitted effect of over 60% in size
Details: A549 ARE-Fluc reporter, luciferase luminescence, 18-24 h; series mostly up to 46 µM
Summary of the method: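 A549 ARE_Fluc cells, 5000/well, 5% FBS OPTI-MEM; compounds in dose-response, 18-24 h at 37 °C/5% CO2; CellTiter-Fluor viability read (Ex 405/Em 525), then BugLite luciferase luminescence = Nrf2 activity.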
Potency is read from the fitted curve at half-maximal effect.

**Q.** For `CCOc1ccc(NS(=O)(=O)c2cc(NC(=O)c3cccc(C)c3)ccc2Cl)cc1`, which Potency is on record?
**A.** Its Potency is inconclusive: 18.4 µM [falling, single point].

**Q.** For `O=C(CNC(=O)c1ccco1)NCc1nc2ccccc2[nH]1`, which Potency is on record?
**A.** The Potency was inconclusive: 0.0052 µM [falling, full curve, poor fit].

**Q.** With `C/C(N)=C(/C#N)C(=O)CSc1nnc(NC(C)C)s1` as the molecule, how does the Potency read?
**A.** Its Potency is inconclusive: 11.6 µM [activator, partial curve, poor fit].

**Q.** For `Cc1ccccc1OCCCCn1c(CO)nc2ccccc21`, which Potency is on record?
**A.** The Potency was active: 23.1 µM.

**Q.** For `COc1ccc(-c2c[n+]3c4n2CCCCC4=C(c2ccccc2)C3)cc1`, which Potency is on record?
**A.** The Potency was “inactive”.

**Q.** Which Potency does the source give for `CC1=C(C(=O)Nc2cc(C)ccc2C)C(c2cccs2)NC(=S)N1` (stereo unspecified) here?
**A.** The Potency was inconclusive: 0.366 µM [falling, full curve, poor fit].

**Q.** Which Potency does the source give for `Cc1cnc(C(=O)N2CCCC(N3CCN(c4ccccc4C)CC3)C2)cn1` (stereo unspecified) here?
**A.** Its Potency is inconclusive: 29.1 µM [activator, partial curve, poor fit].

**Q.** With `CCn1c(SCC(N)=O)nc2cc(S(=O)(=O)N3CCOCC3)ccc21` as the molecule, how does the Potency read?
**A.** Its Potency is “inactive”.

**Q.** With `O=C(Nc1ccc2c(c1)CCC2)c1ccc(Cl)nc1` as the molecule, how does the Potency read?
**A.** The Potency was inconclusive: 5.17 µM [activator, partial curve].

**Q.** With `N#C/C(=C\Nc1ccccn1)S(=O)(=O)c1ccc(Cl)cc1` as the molecule, how does the Potency read?
**A.** The Potency was inconclusive: 8.2 µM [activator, partial curve].

**Q.** Which Potency does the source give for `CC(Nc1cc(N2CCN(C(=O)C(C)(C)C)CC2)ccc1[N+](=O)[O-])c1ccccc1` (stereo unspecified) here?
**A.** Its Potency is inconclusive: 29.1 µM [falling, single point].

**Q.** With `O=C(/C=C/c1ccccc1)NCc1ccco1` as the molecule, how does the Potency read?
**A.** The Potency was inconclusive: 2.59 µM [activator, full curve].

**Q.** With `Cc1ccc(CN(C(=O)C(F)(F)F)C(C(=O)NC2CCCCC2)c2ccco2)cc1` (stereo unspecified) as the molecule, how does the Potency read?
**A.** The Potency was inconclusive: 14.6 µM [falling, partial curve, poor fit].

**Q.** Which Potency does the source give for `Cc1ccccc1-c1nn2c(-c3ccccc3)nnc2s1` here?
**A.** Its Potency is inconclusive: 13 µM [falling, partial curve].

**Q.** For `COc1ccc(-c2cc3nc(C)c(CCC(=O)N4CCN(c5ccc(F)cc5)CC4)c(C)n3n2)c(OC)c1`, which Potency is on record?
**A.** Its Potency is inconclusive: 29.1 µM [falling, single point].

**Q.** With `COC(=O)c1cc(Sc2c(Cl)cccc2Cl)ccn1` as the molecule, how does the Potency read?
**A.** The Potency was inconclusive: 29.1 µM [falling, single point].

**Q.** Which Potency does the source give for `Cc1ccc(Nc2nc3ccccc3c3nnc(C)n23)c(C)c1` here?
**A.** The Potency was “inactive”.

**Q.** With `CC(C)(C)c1nnc2sc(SC/C(O)=C(\C#N)c3nc4ccccc4[nH]3)nn2c1=O` as the molecule, how does the Potency read?
**A.** Its Potency is inconclusive: 25.9 µM [activator, partial curve, poor fit].

**Q.** Which Potency does the source give for `CCOc1cc(/C=N/O)cc(Br)c1OCc1ccc(Cl)cc1` here?
**A.** Its Potency is inconclusive: 29.1 µM [falling, single point].

**Q.** With `O=C(O)c1cccc(COc2ccc3c(c2)CCC3)c1` as the molecule, how does the Potency read?
**A.** Its Potency is inconclusive: 5.17 µM [activator, partial curve].

**Q.** With `COc1ccc(C2(O)CC3CCC(C2)N3c2nc(C)cc(C)c2C#N)cc1` (stereo unspecified) as the molecule, how does the Potency read?
**A.** Its Potency is “inactive”.

**Q.** For `O=C(Nc1nc(-c2ccc(Cl)cc2Cl)cs1)c1ccc(OCC2CCCO2)cc1` (stereo unspecified), which Potency is on record?
**A.** Its Potency is “inactive”.

**Q.** Which Potency does the source give for `O=C(NCc1ccccc1)c1ccc2c(=O)[nH]c3c(C(=O)NCC4CCCO4)sc(=S)n3c2c1` (stereo unspecified) here?
**A.** Its Potency is inconclusive: 23.1 µM [falling, single point].

**Q.** Which Potency does the source give for `CC1=NN(c2ccccc2C(=O)O)C(=O)C1N=Nc1ccccc1` (stereo unspecified) here?
**A.** The Potency was inconclusive: 25.9 µM [falling, partial curve, poor fit].

**Q.** Which Potency does the source give for `COc1ccc(-c2nc(-c3ccc(Br)cc3)no2)c(OC)c1` here?
**A.** The Potency was inconclusive: 1.84 µM [activator, full curve].

**Q.** With `COc1cc(OC)c(N(C)C(=O)c2cn(C3CCCC3)c(=O)c3c2c2ccccc2n3C)cc1Cl` as the molecule, how does the Potency read?
**A.** Its Potency is inconclusive: 20.6 µM [falling, single point].

**Q.** For `Cc1cccc2sc(N(CCCN(C)C)C(=O)CCS(=O)(=O)c3ccccc3)nc12`, which Potency is on record?
**A.** Its Potency is inconclusive: 14.6 µM [falling, partial curve, poor fit].

**Q.** Which Potency does the source give for `COc1ccc(C(=O)Nc2cccc(S(=O)(=O)N3CCCC3)c2)cc1S(=O)(=O)N1CCOCC1` here?
**A.** The Potency was “inactive”.

**Q.** With `Cc1ccccc1C(=O)OCc1cc(=O)n2nc(C(C)C)sc2n1` as the molecule, how does the Potency read?
**A.** The Potency was inconclusive: 6.51 µM [falling, single point].

**Q.** Which Potency does the source give for `CCCOc1ccc(C(=O)Nc2ccc(S(=O)(=O)Nc3cc(C)nc(C)n3)cc2)cc1` here?
**A.** The Potency was inconclusive: 29.1 µM [falling, single point].

**Q.** With `Cc1nc(N2CCN(Cc3ccc4c(c3)OCO4)CC2)[nH]c(=O)c1C` as the molecule, how does the Potency read?
**A.** The Potency was inconclusive: 0.82 µM [falling, full curve, poor fit].

**Q.** With `Cc1ccc(N2CCN(C(=O)c3cnn(-c4ccc(F)cc4F)c3C3CCN(C(=O)OC(C)(C)C)CC3)CC2)c(C)c1` as the molecule, how does the Potency read?
**A.** Its Potency is inconclusive: 29.1 µM [falling, single point].

**Q.** With `Cc1nc2cc(C(F)(F)F)ccc2n1C1CCN(CC(=O)N2CCCC2)CC1` as the molecule, how does the Potency read?
**A.** The Potency was inconclusive: 20.6 µM [falling, partial curve, poor fit].

**Q.** Which Potency does the source give for `CCNc1nc(Cl)nc(NC2CCCCC2)n1` here?
**A.** Its Potency is inconclusive: 29.1 µM [activator, single point].

**Q.** For `CN(Cc1ccccc1)S(=O)(=O)c1ccc2[nH]c3c(c2c1)CCCCC3`, which Potency is on record?
**A.** The Potency was active: 16.4 µM.

**Q.** For `Cc1ccc2nnc(Cl)n2n1`, which Potency is on record?
**A.** Its Potency is inconclusive: 29.1 µM [activator, single point].

**Q.** For `CC(C)COc1ccc(Cc2cnc(N)nc2N)cc1`, which Potency is on record?
**A.** Its Potency is inconclusive: 4.61 µM [activator, partial curve].

**Q.** For `Cc1ccc(-n2nnnc2-c2cnn(-c3ccc(F)cc3)c2C(F)(F)F)cc1`, which Potency is on record?
**A.** Its Potency is inconclusive: 18.4 µM [falling, single point].

**Q.** For `Cc1cc(NC(=O)c2sc(Nc3ccc(F)c(Cl)c3)nc2N)no1`, which Potency is on record?
**A.** The Potency was inconclusive: 16.4 µM [falling, partial curve].

**Q.** With `Cc1cccnc1NC(=O)c1ccc(S(=O)(=O)N2CCC(C)CC2)cc1` as the molecule, how does the Potency read?
**A.** Its Potency is inconclusive: 32.6 µM [falling, partial curve, poor fit].

**Q.** With `CCOC(=O)N1CCN(C(=O)CCNS(=O)(=O)c2cc(Br)cnc2N)CC1` as the molecule, how does the Potency read?
**A.** The Potency was “inactive”.
